From publication PMC3543422 come the findings set out here.

Chains of the proteins cited; added tags and fusions are not shown. Lines headed by an entry give the natural chain unless they say otherwise; changes in a name come on top.
UniProt Q6GQM2: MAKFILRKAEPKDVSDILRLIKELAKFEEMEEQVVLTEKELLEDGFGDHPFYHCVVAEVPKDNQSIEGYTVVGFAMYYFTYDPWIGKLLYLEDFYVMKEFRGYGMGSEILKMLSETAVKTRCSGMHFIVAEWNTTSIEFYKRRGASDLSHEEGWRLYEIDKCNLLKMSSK
UniProt Q4V8U3: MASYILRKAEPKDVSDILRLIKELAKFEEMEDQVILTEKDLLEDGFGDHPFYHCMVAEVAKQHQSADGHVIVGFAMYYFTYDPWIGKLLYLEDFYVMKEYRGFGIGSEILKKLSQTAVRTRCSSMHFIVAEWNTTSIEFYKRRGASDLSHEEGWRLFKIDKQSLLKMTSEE
UniProt Q7T174: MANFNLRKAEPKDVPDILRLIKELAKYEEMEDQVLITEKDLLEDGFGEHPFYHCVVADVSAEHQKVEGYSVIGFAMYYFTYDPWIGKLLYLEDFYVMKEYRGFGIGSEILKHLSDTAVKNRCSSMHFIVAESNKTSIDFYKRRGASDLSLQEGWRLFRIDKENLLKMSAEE
UniProt Q6EHI4: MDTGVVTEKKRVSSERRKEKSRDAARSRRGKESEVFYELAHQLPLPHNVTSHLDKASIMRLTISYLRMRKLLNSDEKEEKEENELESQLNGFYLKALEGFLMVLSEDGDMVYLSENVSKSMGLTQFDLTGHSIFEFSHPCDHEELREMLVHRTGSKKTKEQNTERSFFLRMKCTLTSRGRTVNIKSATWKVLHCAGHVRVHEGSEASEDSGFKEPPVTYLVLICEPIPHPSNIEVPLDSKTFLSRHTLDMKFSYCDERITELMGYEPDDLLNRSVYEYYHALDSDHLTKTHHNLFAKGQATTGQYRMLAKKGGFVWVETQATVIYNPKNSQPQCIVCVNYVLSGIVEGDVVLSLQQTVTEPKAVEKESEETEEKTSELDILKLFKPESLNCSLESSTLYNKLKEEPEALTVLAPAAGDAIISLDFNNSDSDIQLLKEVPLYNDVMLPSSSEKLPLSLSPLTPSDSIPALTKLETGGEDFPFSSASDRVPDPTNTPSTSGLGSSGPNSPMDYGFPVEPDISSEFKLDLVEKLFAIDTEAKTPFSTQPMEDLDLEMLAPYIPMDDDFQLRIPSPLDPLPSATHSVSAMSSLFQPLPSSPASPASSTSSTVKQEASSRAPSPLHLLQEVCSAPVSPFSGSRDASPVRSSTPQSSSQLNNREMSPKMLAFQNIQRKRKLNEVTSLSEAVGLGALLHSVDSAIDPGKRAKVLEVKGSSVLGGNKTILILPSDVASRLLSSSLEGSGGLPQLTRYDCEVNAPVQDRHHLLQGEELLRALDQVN

Experiment [1] concerns the target GST-Ssat1c fusion protein (zebrafish spermidine/spermine N1-acetyltransferase 1c) (zebrafish) (UniProt Q6GQM2). The experiment can be described thus: pull-down; GST pull-down: 100 µg lysate of transfected HEK293T cells (Ssat1-transfected cells cultured with 10 µM DENSPM) mixed with 10 µg GST or GST fusion protein in 500 µl PBS at 4°C for 2 h, then glutathione-Sepharose 4B beads 30 min, washed with PBS; SDS-PAGE and western blotting; only the target ….

The target of experiment [2] is GST-Ssat1b fusion protein (zebrafish spermidine/spermine N1-acetyltransferase 1b) (zebrafish) (UniProt Q4V8U3). The description is as above.
Experiment [3] deals with GST-Ssat1a fusion protein (zebrafish spermidine/spermine N1-acetyltransferase 1a) (zebrafish) (UniProt Q7T174). Kind of experiment: condition: 10 µg GST fusion protein with 100 µg lysate in 500 µl; pull-down; GST pull-down: 100 µg lysate of transfected HEK293T cells (Ssat1-transfected cells cultured with 10 µM DENSPM) mixed with 10 µg GST or GST fusion protein in 500 µl PBS at 4°C for 2 h, then glutathione-Sepharose 4B beads 30 min, washed with PBS; SDS-PAGE and western blotting; only the target ….

For experiment [4] the target is unchanged. Kind of experiment: pull-down; GST pull-down: 100 µg lysate of transfected HEK293T cells (Ssat1-transfected cells cultured with 10 µM DENSPM) mixed with 10 µg GST or GST fusion protein in 500 µl PBS at 4°C for 2 h, then glutathione-Sepharose 4B beads 30 min, washed with PBS; SDS-PAGE and western blotting; only the target ….

Results are given in words; binding and its absence hold for the method and conditions named. Binding seen in cells or lysates may run through a third protein. For part of these data: Binding calls can cover weak binding; strength is not graded here.

“myc-tagged PAS-B domain of zebrafish Hif-1α (from UniProt Q6EHI4) (domain or fragment)”: the binding result in experiment [1] is “binds”; in experiment [2] it was “binds”; in experiment [3], “no binding”.

As for “myc-tagged zebrafish Ssat1b (from UniProt Q4V8U3) (enzyme)”, the binding result in experiment [4] is listed as “binds”.

For “myc-tagged zebrafish Ssat1c (from UniProt Q6GQM2) (enzyme)”, the binding entry in experiment [4] and in experiment [2] was “binds” throughout.
